{"source": "the supplement of paper PMC8728848", "test_in_all_cases": "glycan array binding signal (z-score within array); higher = stronger binding", "settings_in_all_cases": "glycan notation: IUPAC condensed, linker removed", "key": {"[1]": {"biological_target": "Fuc(a1-2)[GalNAc(a1-3)]Gal(b1-4)GlcNAc(b1-3)[Fuc(a1-2)[GalNAc(a1-3)]Gal(b1-4)GlcNAc(b1-6)]GalNAc", "method_in_brief": "(§1)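 The binding signal is a Z-score computed within each array. Data were drawn from 3228 arrays in the Consortium for Functional Glycomics database, restricted to those with a known protein sequence. Scores were averaged over arrays of the same protein sequence at different concentrations or buffers, and over linkers, and negative values can be taken as non-binding.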"}, "[2]": {"biological_target": "Fuc(a1-2)[GalNAc(a1-3)]Gal(b1-4)GlcNAc(b1-6)GalNAc", "method_in_brief": "as §1"}, "[3]": {"biological_target": "Fuc(a1-2)[GalNAc(a1-3)]Gal(b1-4)[Fuc(a1-3)]GlcNAc", "method_in_brief": "as §1"}, "[4]": {"biological_target": "Fuc(a1-2)[GalNAc(a1-3)]Gal(b1-4)[Fuc(a1-3)]GlcNAc(b1-3)GalNAc", "method_in_brief": "as §1"}, "[5]": {"biological_target": "Fuc(a1-2)[GalNAc(a1-4)]Gal(b1-4)GlcNAc", "method_in_brief": "as §1"}, "[6]": {"biological_target": "Fuc(a1-2)[GalNAc(b1-3)]Gal", "method_in_brief": "as §1"}, "Fuc(a1-3)GlcNAc": {"biological_target": "Fuc(a1-3)GlcNAc", "method_in_brief": "as §1"}, "[7]": {"biological_target": "Fuc(a1-3)[Gal(b1-4)]Glc6S", "method_in_brief": "as §1"}, "[8]": {"biological_target": "Fuc(a1-3)[Gal(b1-4)]GlcNAc", "method_in_brief": "as §1"}, "[9]": {"biological_target": "Fuc(a1-3)[Gal(b1-4)]GlcNAc(b1-2)Man", "method_in_brief": "as §1"}, "[10]": {"biological_target": "Fuc(a1-3)[Gal(b1-4)]GlcNAc(b1-2)Man(a1-3)[Fuc(a1-3)[Gal(b1-4)]GlcNAc(b1-2)Man(a1-6)]Man(b1-4)GlcNAc(b1-4)GlcNAc", "method_in_brief": "as §1"}, "[11]": {"biological_target": "Fuc(a1-3)[Gal(b1-4)]GlcNAc(b1-2)Man(a1-3)[Fuc(a1-3)[Gal(b1-4)]GlcNAc(b1-2)Man(a1-6)]Man(b1-4)GlcNAc(b1-4)[Fuc(a1-6)]GlcNAc", "method_in_brief": "as §1"}, "[12]": {"biological_target": "Fuc(a1-3)[Gal(b1-4)]GlcNAc(b1-3)Gal(b1-3)[Fuc(a1-4)]GlcNAc", "method_in_brief": "as §1"}, "[13]": {"biological_target": "Fuc(a1-3)[Gal(b1-4)]GlcNAc(b1-3)GalNAc", "method_in_brief": "as §1"}, "[14]": {"biological_target": "Fuc(a1-3)[Gal(b1-4)]GlcNAc(b1-4)Gal(b1-4)[Fuc(a1-3)]GlcNAc", "method_in_brief": "as §1"}, "[15]": {"biological_target": "Fuc(a1-3)[Gal(b1-4)]GlcNAc(b1-4)Gal(b1-4)[Fuc(a1-3)]GlcNAc(b1-4)Gal(b1-4)[Fuc(a1-3)]GlcNAc", "method_in_brief": "as §1"}, "[16]": {"biological_target": "Fuc(a1-3)[Gal(b1-4)]GlcNAc(b1-6)GalNAc", "method_in_brief": "as §1"}, "[17]": {"biological_target": "Fuc(a1-3)[Gal(b1-4)]GlcNAc(b1-6)[Gal(b1-3)GlcNAc(b1-3)]Gal(b1-4)Glc", "method_in_brief": "as §1"}, "[18]": {"biological_target": "Fuc(a1-3)[Gal(b1-4)]GlcNAc(b1-6)[Neu5Ac(a2-3)Gal(b1-3)]GalNAc", "method_in_brief": "as §1"}, "[19]": {"biological_target": "Fuc(a1-3)[Gal(b1-4)]GlcNAc6S", "method_in_brief": "as §1"}, "[20]": {"biological_target": "Fuc(a1-3)[Gal3S(b1-4)]Glc", "method_in_brief": "as §1"}, "[21]": {"biological_target": "Fuc(a1-3)[Gal3S(b1-4)]GlcNAc", "method_in_brief": "as §1"}, "[22]": {"biological_target": "Fuc(a1-3)[Gal3S(b1-4)]GlcNAc6S", "method_in_brief": "as §1"}, "[23]": {"biological_target": "Fuc(a1-3)[GalNAc(b1-4)]GlcNAc", "method_in_brief": "as §1"}, "[24]": {"biological_target": "Fuc(a1-3)[GalNAc(b1-4)]GlcNAc6S", "method_in_brief": "as §1"}, "[25]": {"biological_target": "Fuc(a1-3)[GalNAc3S(b1-4)]GlcNAc", "method_in_brief": "as §1"}, "Fuc(a1-4)GlcNAc": {"biological_target": "Fuc(a1-4)GlcNAc", "method_in_brief": "as §1"}, "Fuc(b1-3)GlcNAc": {"biological_target": "Fuc(b1-3)GlcNAc", "method_in_brief": "as §1"}, "Gal(a1-2)Gal": {"biological_target": "Gal(a1-2)Gal", "method_in_brief": "as §1"}, "Gal(a1-3)Gal": {"biological_target": "Gal(a1-3)Gal", "method_in_brief": "as §1"}, "Gal(a1-3)Gal(b1-3)GlcNAc": {"biological_target": "Gal(a1-3)Gal(b1-3)GlcNAc", "method_in_brief": "as §1"}, "[26]": {"biological_target": "Gal(a1-3)Gal(b1-3)GlcNAc(b1-2)Man", "method_in_brief": "as §1"}, "[27]": {"biological_target": "Gal(a1-3)Gal(b1-3)GlcNAc(b1-2)Man(a1-3)[Gal(a1-3)Gal(b1-3)GlcNAc(b1-2)Man(a1-6)]Man(b1-4)GlcNAc(b1-4)GlcNAc", "method_in_brief": "as §1"}, "[28]": {"biological_target": "Gal(a1-3)Gal(b1-3)GlcNAc(b1-3)GalNAc", "method_in_brief": "as §1"}, "[29]": {"biological_target": "Gal(a1-3)Gal(b1-3)GlcNAc(b1-6)GalNAc", "method_in_brief": "as §1"}, "[30]": {"biological_target": "Gal(a1-3)Gal(b1-3)[Fuc(a1-4)]GlcNAc(b1-2)Man(a1-3)[Gal(a1-3)Gal(b1-3)[Fuc(a1-4)]GlcNAc(b1-2)Man(a1-6)]Man(b1-4)GlcNAc(b1-4)GlcNAc", "method_in_brief": "as §1"}, "Gal(a1-3)Gal(b1-4)Glc": {"biological_target": "Gal(a1-3)Gal(b1-4)Glc", "method_in_brief": "as §1"}, "Gal(a1-3)Gal(b1-4)GlcNAc": {"biological_target": "Gal(a1-3)Gal(b1-4)GlcNAc", "method_in_brief": "as §1"}, "[31]": {"biological_target": "Gal(a1-3)Gal(b1-4)GlcNAc(b1-2)Man", "method_in_brief": "as §1"}, "[32]": {"biological_target": "Gal(a1-3)Gal(b1-4)GlcNAc(b1-2)Man(a1-3)[Gal(a1-3)Gal(b1-4)GlcNAc(b1-2)Man(a1-6)]Man(b1-4)GlcNAc(b1-4)GlcNAc", "method_in_brief": "as §1"}, "[33]": {"biological_target": "Gal(a1-3)Gal(b1-4)GlcNAc(b1-3)GalNAc", "method_in_brief": "as §1"}, "[34]": {"biological_target": "Gal(a1-3)Gal(b1-4)GlcNAc(b1-6)GalNAc", "method_in_brief": "as §1"}, "[35]": {"biological_target": "Gal(a1-3)Gal(b1-4)[Fuc(a1-3)]GlcNAc", "method_in_brief": "as §1"}, "[36]": {"biological_target": "Gal(a1-3)Gal(b1-4)[Fuc(a1-3)]GlcNAc(b1-2)Man(a1-3)[Gal(a1-3)Gal(b1-4)[Fuc(a1-3)]GlcNAc(b1-2)Man(a1-6)]Man(b1-4)GlcNAc(b1-4)GlcNAc", "method_in_brief": "as §1"}, "Gal(a1-3)GalNAc": {"biological_target": "Gal(a1-3)GalNAc", "method_in_brief": "as §1"}}, "note": "The other results are listed elsewhere or left out.", "data": [{"binder": "Gal 10 (Homo sapiens), Q05315 (protein) MSLLPVPYTEAASLSTGSTVTIKGRPLVCFLNEPYLQVDFHTEMKEESDIVFHFQVCFGRRVVMNSREYGAWKQQVESKNMPFQDGQEFELSISVLPDKYQVMVNGQSSYTFDHRIKPEAVKMVQVWRDISLTKFNVSYLKR", "values": [{"measurement": "glycan array binding signal (z-score)", "setting": "[1]", "result": 3.88}, {"measurement": "glycan array binding signal (z-score)", "setting": "[2]", "result": -0.639}, {"measurement": "glycan array binding signal (z-score)", "setting": "[3]", "result": 0.948}, {"measurement": "glycan array binding signal (z-score)", "setting": "[4]", "result": 0.495}, {"measurement": "glycan array binding signal (z-score)", "setting": "[5]", "result": -0.476}, {"measurement": "glycan array binding signal (z-score)", "setting": "[6]", "result": -0.689}, {"measurement": "glycan array binding signal (z-score)", "setting": "Fuc(a1-3)GlcNAc", "result": 0.306}, {"measurement": "glycan array binding signal (z-score)", "setting": "[7]", "result": -0.989}, {"measurement": "glycan array binding signal (z-score)", "setting": "[8]", "result": -0.445}, {"measurement": "glycan array binding signal (z-score)", "setting": "[9]", "result": 1.17}, {"measurement": "glycan array binding signal (z-score)", "setting": "[10]", "result": 0.809}, {"measurement": "glycan array binding signal (z-score)", "setting": "[11]", "result": 0.244}, {"measurement": "glycan array binding signal (z-score)", "setting": "[12]", "result": -0.108}, {"measurement": "glycan array binding signal (z-score)", "setting": "[13]", "result": 0.678}, {"measurement": "glycan array binding signal (z-score)", "setting": "[14]", "result": 0.68}, {"measurement": "glycan array binding signal (z-score)", "setting": "[15]", "result": 0.306}, {"measurement": "glycan array binding signal (z-score)", "setting": "[16]", "result": 1.47}, {"measurement": "glycan array binding signal (z-score)", "setting": "[17]", "result": -0.203}, {"measurement": "glycan array binding signal (z-score)", "setting": "[18]", "result": -0.565}, {"measurement": "glycan array binding signal (z-score)", "setting": "[19]", "result": 0.152}, {"measurement": "glycan array binding signal (z-score)", "setting": "[20]", "result": -0.241}, {"measurement": "glycan array binding signal (z-score)", "setting": "[21]", "result": -0.733}, {"measurement": "glycan array binding signal (z-score)", "setting": "[22]", "result": 0.451}, {"measurement": "glycan array binding signal (z-score)", "setting": "[23]", "result": 0.593}, {"measurement": "glycan array binding signal (z-score)", "setting": "[24]", "result": -0.191}, {"measurement": "glycan array binding signal (z-score)", "setting": "[25]", "result": -0.225}, {"measurement": "glycan array binding signal (z-score)", "setting": "Fuc(a1-4)GlcNAc", "result": -0.138}, {"measurement": "glycan array binding signal (z-score)", "setting": "Fuc(b1-3)GlcNAc", "result": 0.585}, {"measurement": "glycan array binding signal (z-score)", "setting": "Gal(a1-2)Gal", "result": 0.13}, {"measurement": "glycan array binding signal (z-score)", "setting": "Gal(a1-3)Gal", "result": -0.311}, {"measurement": "glycan array binding signal (z-score)", "setting": "Gal(a1-3)Gal(b1-3)GlcNAc", "result": -0.317}, {"measurement": "glycan array binding signal (z-score)", "setting": "[26]", "result": -0.565}, {"measurement": "glycan array binding signal (z-score)", "setting": "[27]", "result": 1.89}, {"measurement": "glycan array binding signal (z-score)", "setting": "[28]", "result": -0.195}, {"measurement": "glycan array binding signal (z-score)", "setting": "[29]", "result": 0.334}, {"measurement": "glycan array binding signal (z-score)", "setting": "[30]", "result": 0.703}, {"measurement": "glycan array binding signal (z-score)", "setting": "Gal(a1-3)Gal(b1-4)Glc", "result": 0.851}, {"measurement": "glycan array binding signal (z-score)", "setting": "Gal(a1-3)Gal(b1-4)GlcNAc", "result": 0.105}, {"measurement": "glycan array binding signal (z-score)", "setting": "[31]", "result": -0.257}, {"measurement": "glycan array binding signal (z-score)", "setting": "[32]", "result": 0.982}, {"measurement": "glycan array binding signal (z-score)", "setting": "[33]", "result": 0.463}, {"measurement": "glycan array binding signal (z-score)", "setting": "[34]", "result": -0.126}, {"measurement": "glycan array binding signal (z-score)", "setting": "[35]", "result": -0.547}, {"measurement": "glycan array binding signal (z-score)", "setting": "[36]", "result": 0.274}, {"measurement": "glycan array binding signal (z-score)", "setting": "Gal(a1-3)GalNAc", "result": 0.123}]}]}
